Here are results for three sequences from US20030027152, “Generation of diagnostic tools to assay the human LHX3/P-LIM/LIM-3 factor” (Indiana University Advanced Research and Technology …, published 2003).

Protein sequences, listed by entry. Tags and fused reporters are not part of them. Lines headed by an entry give the natural chain unless they say otherwise; changes in a name come on top.
UniProt Q9UBR4: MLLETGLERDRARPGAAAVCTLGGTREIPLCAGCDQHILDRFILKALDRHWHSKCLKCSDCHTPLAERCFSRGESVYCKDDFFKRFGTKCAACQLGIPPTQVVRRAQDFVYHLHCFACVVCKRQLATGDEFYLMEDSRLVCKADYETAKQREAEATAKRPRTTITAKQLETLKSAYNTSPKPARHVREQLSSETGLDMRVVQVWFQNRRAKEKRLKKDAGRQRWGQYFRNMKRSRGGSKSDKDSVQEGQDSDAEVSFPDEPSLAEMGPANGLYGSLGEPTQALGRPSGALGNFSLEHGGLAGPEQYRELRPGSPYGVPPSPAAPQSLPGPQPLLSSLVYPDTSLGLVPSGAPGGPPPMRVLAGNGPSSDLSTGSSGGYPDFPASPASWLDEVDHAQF

Assay in all cases: EMSA
For one data set, the target named is T1, hLhx3b (Homo sapiens) (UniProt Q9UBR4).
T1 sequence (limits assumed): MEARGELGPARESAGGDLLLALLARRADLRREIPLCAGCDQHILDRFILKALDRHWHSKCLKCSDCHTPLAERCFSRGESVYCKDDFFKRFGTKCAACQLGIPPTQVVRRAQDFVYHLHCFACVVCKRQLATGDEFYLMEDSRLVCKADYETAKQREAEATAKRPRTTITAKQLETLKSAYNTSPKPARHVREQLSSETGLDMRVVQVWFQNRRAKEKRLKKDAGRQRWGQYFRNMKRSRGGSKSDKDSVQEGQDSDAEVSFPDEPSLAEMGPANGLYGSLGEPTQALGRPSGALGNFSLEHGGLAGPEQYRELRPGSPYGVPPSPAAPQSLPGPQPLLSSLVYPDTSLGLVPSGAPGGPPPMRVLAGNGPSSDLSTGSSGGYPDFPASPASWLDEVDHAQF
The conditions noted are these: less effective than hLhx3a, protein translated in vitro, label: radiolabel.

For data set [1], the target named is T2, GST-hLhx3b (Homo sapiens) (UniProt Q9UBR4).
T2 sequence (limits assumed): T1 sequence (limits assumed)
The conditions noted are these: purified recombinant protein, protein details: N-terminal GST (pGEX-KT), label: radiolabel.

Data set [2] concerns the target T3, hLhx3b-myc (Homo sapiens) (UniProt Q9UBR4).
T3 sequence (limits assumed): T1 sequence (limits assumed)
The note with it: less effective than hLhx3a-myc; protein translated in vitro; protein details: C-terminal myc (pcDNA3.1/Myc-His); label: radiolabel.

Another data set deals with T4, GST-pLhx3 (Sus scrofa) (UniProt O97581).
T4 sequence (limits assumed): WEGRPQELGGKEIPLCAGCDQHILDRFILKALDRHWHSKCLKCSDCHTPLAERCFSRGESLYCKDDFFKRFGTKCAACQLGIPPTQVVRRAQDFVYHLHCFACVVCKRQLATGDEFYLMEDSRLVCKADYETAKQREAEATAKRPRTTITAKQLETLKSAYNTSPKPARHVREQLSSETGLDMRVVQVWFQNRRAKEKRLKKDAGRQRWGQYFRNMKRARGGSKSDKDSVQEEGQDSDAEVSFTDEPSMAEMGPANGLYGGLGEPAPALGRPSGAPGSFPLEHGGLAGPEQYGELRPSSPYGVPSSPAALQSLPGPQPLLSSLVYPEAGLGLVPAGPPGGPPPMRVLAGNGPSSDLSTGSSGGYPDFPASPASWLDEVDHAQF
The note with it: weak binding, seen on longer exposure; LIM domains suppress binding; purified recombinant protein; protein details: N-terminal GST (pGEX-KT); label: radiolabel.

Weaker means in comparison with the reference protein, sequence or condition of that experiment. Where a protein sequence is shown, tags need not be part of it.

Turning to “CAGAAAATTAATTAATTGTAA (double strand) [Lhx3 consensus binding site]”, the binding result (with hLhx3b (Homo sapiens); in data set [1]; in data set [2]) was “binds more weakly” each time.
In the case of “ACATTAGGTACTTAGCTAATTAAATGTG (double strand) [porcine αGSU -351/-324 wild type]”, in the data set with GST-pLhx3 (Sus scrofa), the binding result is given as “binds more weakly”.
Take “ACATTAGGTACTTAGCTAATTAAATGTG (double strand) [αGSU -350/-323 (PGBE)]”: the binding result (with hLhx3b (Homo sapiens) (in vitro translated); in data set [1] (less effective than GST-hLhx3a)) was “binds more weakly” throughout.
